In paper PMC7862700 one finds binding signal data, which are given here for 30 sequences.

The list shows a part of the results, in another mix than the full data. For some of these results: At the low end of the ranking, values are background and their order means little.

What all share (assay): DAPPL (digital affinity profiling via proximity ligation, sequencing)
Details in all cases: 10 mM Tris-HCl pH 7.5, 50 mM NaCl, 1 mM DTT, 4% glycerol, room temperature, 30 min; GST-TFs on glutathione beads, 16-mer random dsDNA library, 0.1% …; high values mean tight binding; double strand, one strand shown; scale: fold enrichment (6-mer frequency, TF over GST control)

One test deals with T1, ELK1 (UniProt P19419).
T1 sequence: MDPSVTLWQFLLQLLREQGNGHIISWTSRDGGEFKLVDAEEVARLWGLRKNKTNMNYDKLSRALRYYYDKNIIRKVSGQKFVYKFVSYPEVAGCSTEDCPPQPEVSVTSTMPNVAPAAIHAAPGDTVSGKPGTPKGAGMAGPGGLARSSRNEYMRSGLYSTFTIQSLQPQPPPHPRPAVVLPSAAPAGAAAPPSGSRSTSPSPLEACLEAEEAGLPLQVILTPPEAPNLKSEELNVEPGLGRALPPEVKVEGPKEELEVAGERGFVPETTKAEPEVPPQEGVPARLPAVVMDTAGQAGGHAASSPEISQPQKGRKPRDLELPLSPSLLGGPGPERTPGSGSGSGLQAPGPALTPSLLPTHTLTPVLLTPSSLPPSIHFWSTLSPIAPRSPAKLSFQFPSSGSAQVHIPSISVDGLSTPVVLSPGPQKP

The next test addresses T2, ELK3 (UniProt P41970).
T2 sequence: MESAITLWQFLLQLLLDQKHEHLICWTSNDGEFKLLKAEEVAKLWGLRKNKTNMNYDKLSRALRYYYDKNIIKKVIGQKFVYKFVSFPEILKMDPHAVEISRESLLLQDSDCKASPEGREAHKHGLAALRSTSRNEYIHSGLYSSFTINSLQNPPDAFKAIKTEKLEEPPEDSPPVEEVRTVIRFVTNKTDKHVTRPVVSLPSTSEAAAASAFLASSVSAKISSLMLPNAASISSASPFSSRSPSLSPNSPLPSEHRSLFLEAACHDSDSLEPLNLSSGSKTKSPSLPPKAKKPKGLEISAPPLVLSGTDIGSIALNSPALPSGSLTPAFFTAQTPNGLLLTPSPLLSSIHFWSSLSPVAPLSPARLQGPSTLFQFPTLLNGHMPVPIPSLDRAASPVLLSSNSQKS

The target of another test is T3, SPIC (UniProt Q8N5J4).
T3 sequence: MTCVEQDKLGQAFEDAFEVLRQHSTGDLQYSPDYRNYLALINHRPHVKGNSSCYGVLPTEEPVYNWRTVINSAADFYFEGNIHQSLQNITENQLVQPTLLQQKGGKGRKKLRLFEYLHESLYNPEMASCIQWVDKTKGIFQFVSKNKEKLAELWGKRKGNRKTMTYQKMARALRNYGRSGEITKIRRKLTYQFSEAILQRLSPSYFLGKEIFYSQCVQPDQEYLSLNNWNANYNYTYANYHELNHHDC

The target in the next test is T4, ETS2 (UniProt P15036).
T4 sequence: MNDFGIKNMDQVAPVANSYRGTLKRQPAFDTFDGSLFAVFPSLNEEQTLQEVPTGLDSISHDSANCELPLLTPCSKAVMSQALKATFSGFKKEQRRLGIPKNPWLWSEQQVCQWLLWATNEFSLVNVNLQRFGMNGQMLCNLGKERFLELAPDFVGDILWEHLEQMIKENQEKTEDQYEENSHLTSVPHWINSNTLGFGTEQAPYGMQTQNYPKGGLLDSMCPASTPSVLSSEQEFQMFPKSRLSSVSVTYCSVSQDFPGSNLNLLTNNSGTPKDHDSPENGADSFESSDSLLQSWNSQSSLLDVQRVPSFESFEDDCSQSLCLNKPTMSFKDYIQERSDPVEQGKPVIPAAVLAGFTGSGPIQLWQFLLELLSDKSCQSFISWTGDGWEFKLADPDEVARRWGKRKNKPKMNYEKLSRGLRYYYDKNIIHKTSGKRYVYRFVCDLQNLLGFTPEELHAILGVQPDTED

The next test concerns the target T5, ETV3 (UniProt P41162-2).
T5 sequence: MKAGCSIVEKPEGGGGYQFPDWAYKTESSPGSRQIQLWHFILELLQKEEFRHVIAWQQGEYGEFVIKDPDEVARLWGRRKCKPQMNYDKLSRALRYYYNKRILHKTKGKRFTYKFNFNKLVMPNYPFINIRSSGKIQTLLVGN

Consider TCTCAA, for which the binding signal in the test with ELK1 came out at 1.27; with ELK3, 1.43; with SPIC, 1.24; with ETS2, 1.25.

Consider TATGGT, for which the binding signal in the test with ELK1 was 1.3; with ELK3, 1.17; with SPIC, 1.49.

As to TGCAAA, the binding signal is 1.11 with ELK1, 1.14 with ELK3, 0.938 in the test with SPIC and 1.06 with ETV3.

Regarding ACCGAC, the values for the binding signal with ELK1 and with SPIC were 1.29 and 1.37, respectively.

Turning to CCTGGG, the binding signal with ELK1 was 1.18; in the test with ELK3 it was 0.972; with SPIC it was 1.05.

As for GCCTCA, the binding signal with ELK1 was 1.34; in the test with ELK3, 1.19; with SPIC, 1.21.

For the sequence CAAATA, the binding signal with ELK1 was found to be 1.13; with ELK3, 1.11; with SPIC it was 1.09.

Regarding ACCTAA, the binding signal with ELK1 is 1.08; with ELK3, 1.2; with SPIC it was 1.21.

As for TAACAT, the binding signal worked out at 1.26 with ELK1, 1.28 in the test with ELK3 and 1.46 with SPIC.

For CGATCG, the figures for the binding signal with ELK1, with ELK3 and with SPIC were 1.12, 0.923 and 0.933, respectively.

For ACGCCC, the binding signal in the test with ELK1 came out at 1.21; with ELK3, 1.11; with SPIC it was 0.957.

CATTTA: the binding signal with ELK1 is 1.23; with SPIC it was 1.17; with ETS2, 1.31.

For the sequence GCGATG, the binding signal came to 1.48 in the test with ELK1 and 1.07 in the test with SPIC.

Take TGCCGC: the binding signal with ELK1 was 1.3; with SPIC, 1.15; in the test with ETS2 it was 1.33; with ETV3, 1.36.

For the sequence AAGGTA, the results for the binding signal with ELK1 and in the test with SPIC were 1.08 and 0.992, respectively.

In the case of ATATAC, the binding signal in the test with ELK1 was found to be 1.24; in the test with SPIC it was 1.17.

For CTTAGA, the binding signal with ELK1 turned out to be 1.11; with SPIC it was 1.27; with ETV3 it was 1.07.

For ATCTGA, the values for the binding signal in the test with ELK1, with ELK3 and with SPIC were 1.08, 1.2 and 1.21, respectively.

Consider ACCGAA, for which the binding signal worked out at 1.04 with ELK1, 1.12 in the test with SPIC and 1.02 with ETV3.

Consider GCTCGT, for which the binding signal with ELK1 was found to be 1.16; with ELK3 it was 0.974; with SPIC, 1.14.

As for TATGCG, the values for the binding signal with ELK1, with SPIC and with ETS2 were 1.42, 1.63 and 1.43, respectively.

Take AAGCTC: the binding signal with ELK1 turned out to be 1.22; with SPIC, 0.997; with ETV3 it was 1.18.

Take GTGCTC: the binding signal with ELK1 was found to be 1.18; in the test with ELK3, 0.976; in the test with SPIC it was 1.21; with ETS2 it was 1.26; with ETV3, 1.25.

Regarding CCAAAA, the binding signal with ELK1 was determined as 1.13; in the test with SPIC it was 1.05; in the test with ETS2 it was 1.11; with ETV3 it was 1.15.

As to ACTGGC, the binding signal with ELK1 turned out to be 1.12; with SPIC, 1.28; in the test with ETV3 it was 1.07.

Regarding CATCGA, the binding signal turned out to be 0.989 in the test with ELK1, 1.06 with SPIC and 1.08 in the test with ETV3.

In the case of TGATCT, the binding signal in the test with ELK1 was determined as 1.33; in the test with SPIC, 1.19.

In the case of CTTGAT, the binding signal with ELK1 came out at 1.53; with ELK3 it was 1.34; with SPIC, 1.41; with ETS2, 1.35.

For TTAGCG, the binding signal with ELK1 turned out to be 1.04; with ELK3 it was 0.912; with SPIC it was 1.03.

As to ATGCAA, the figures for the binding signal in the test with ELK1 and with SPIC were 1.26 and 1.11, respectively.
